{"source": "PubChem BioAssay AID1259425, University of Nebraska Medical Center – 2018", "test": "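Seek colon cancer weak points whose silencing resembles KSR1 loss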 (primary screen)", "system": "HCT116 human colon cancer cells", "knock-down reagent": "siRNA pool against human genes, 50 nM siRNA", "detection": "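mRNA of six signature genes measured together by branched-DNA assay after 50 nM siRNA pool, blank removed, divided by geometric mean of two housekeeping genes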", "direction": "BNIP3L mRNA: higher = more BNIP3L transcript after knockdown", "note": "The whole screen tested about 14,000 reagents; shown is a part drawn at random. Further read-outs or replicates are left out here. No sequences are given here. Not stated in the record: the time to read-out."}
{"target": "INTS9 (integrator complex subunit 9)", "BNIP3L mRNA, set 1": 0.0921}
{"target": "PRKAB1 (protein kinase AMP-activated non-catalytic subunit beta 1)", "BNIP3L mRNA, set 1": 0.11}
{"target": "PRDM6 (PR/SET domain 6)", "BNIP3L mRNA, set 1": 0.116}
{"target": "ZNF503 (zinc finger protein 503)", "BNIP3L mRNA, set 1": 0.176}
{"target": "LINC00467 (long independently transcribed non-coding RNA 467)", "BNIP3L mRNA, set 1": 0.102}
{"target": "PLA2G2E (phospholipase A2 group IIE)", "BNIP3L mRNA, set 1": 0.0932}
{"target": "LIN7B (lin-7 cell polarity scaffold B)", "BNIP3L mRNA, set 1": 0.0433}
{"target": "AP5M1 (adaptor related protein complex 5 subunit mu 1)", "BNIP3L mRNA, set 1": 0.0642}
{"target": "EVI2A (ecotropic viral integration site 2A)", "BNIP3L mRNA, set 1": 0.133}
{"target": "DUSP1 (dual specificity phosphatase 1)", "BNIP3L mRNA, set 1": 0.133}
{"target": "C1orf94 (chromosome 1 open reading frame 94)", "BNIP3L mRNA, set 1": 0.291}
{"target": "ADGRL1 (adhesion G protein-coupled receptor L1)", "BNIP3L mRNA, set 1": 0.18}
{"target": "CXCL13 (C-X-C motif chemokine ligand 13)", "BNIP3L mRNA, set 1": 0.0917}
{"target": "USP49 (ubiquitin specific peptidase 49)", "BNIP3L mRNA, set 1": 0.116}
{"target": "CLCN6 (Cl-/H+ antiporter 6)", "BNIP3L mRNA, set 1": 0.0742}

A few values from the list.
CXCL13 (C-X-C motif chemokine ligand 13), BNIP3L mRNA, set 1 → 0.0917
Result for ZNF503 (zinc finger protein 503) under “BNIP3L mRNA, set 1”: 0.176
Under “BNIP3L mRNA, set 1”, DUSP1 (dual specificity phosphatase 1) is entered as 0.133
EVI2A (ecotropic viral integration site 2A), BNIP3L mRNA, set 1 → 0.133
AP5M1 (adaptor related protein complex 5 subunit mu 1), BNIP3L mRNA, set 1 = 0.0642

Continued:
{"target": "MMP20 (matrix metallopeptidase 20)", "BNIP3L mRNA, set 1": 0.0535}
{"target": "PDE6G (phosphodiesterase 6G)", "BNIP3L mRNA, set 1": 0.0996}
{"target": "SEPTIN2 (septin 2)", "BNIP3L mRNA, set 1": 0.17}
{"target": "NCR2 (natural cytotoxicity triggering receptor 2)", "BNIP3L mRNA, set 1": 0.218}
{"target": "TXLNG (taxilin gamma)", "BNIP3L mRNA, set 1": 0.0545}
{"target": "RAX2 (retina and anterior neural fold homeobox 2)", "BNIP3L mRNA, set 1": 0.131}
{"target": "PTGER1 (prostaglandin E receptor 1)", "BNIP3L mRNA, set 1": 0.259}
{"target": "IL5 (interleukin 5)", "BNIP3L mRNA, set 1": 0.0833}
{"target": "TBC1D14 (TBC1 domain family member 14)", "BNIP3L mRNA, set 1": 0.257}
{"target": "HOXA9 (homeobox A9)", "BNIP3L mRNA, set 1": 0.143}
{"target": "PABPC4 (poly(A) binding protein cytoplasmic 4)", "BNIP3L mRNA, set 1": 0.0657}
{"target": "CD101 (CD101 molecule)", "BNIP3L mRNA, set 1": 0.111}
{"target": "RNGTT (RNA guanylyltransferase and 5'-phosphatase)", "BNIP3L mRNA, set 1": 0.0975}
{"target": "AARS2 (alanyl-tRNA synthetase 2, mitochondrial)", "BNIP3L mRNA, set 1": 0.268}
{"target": "CGB3 (chorionic gonadotropin subunit beta 3)", "BNIP3L mRNA, set 1": 0.111}
{"target": "SLC4A7", "BNIP3L mRNA, set 1": 0.125}
{"target": "NDNF (neuron derived neurotrophic factor)", "BNIP3L mRNA, set 1": 0.152}
{"target": "PCGF5 (polycomb group ring finger 5)", "BNIP3L mRNA, set 1": 0.0562}
{"target": "CMSS1 (cms1 ribosomal small subunit homolog)", "BNIP3L mRNA, set 1": 0.221}
{"target": "MED7 (mediator complex subunit 7)", "BNIP3L mRNA, set 1": 0.111}
{"target": "TMEM126B (transmembrane protein 126B)", "BNIP3L mRNA, set 1": 0.093}
